Binding data for one substance are collected here from publication PMC12501038.

Sequences of proteins named here, by UniProt entry; tags and fusion partners are left off.
UniProt Q8TB45: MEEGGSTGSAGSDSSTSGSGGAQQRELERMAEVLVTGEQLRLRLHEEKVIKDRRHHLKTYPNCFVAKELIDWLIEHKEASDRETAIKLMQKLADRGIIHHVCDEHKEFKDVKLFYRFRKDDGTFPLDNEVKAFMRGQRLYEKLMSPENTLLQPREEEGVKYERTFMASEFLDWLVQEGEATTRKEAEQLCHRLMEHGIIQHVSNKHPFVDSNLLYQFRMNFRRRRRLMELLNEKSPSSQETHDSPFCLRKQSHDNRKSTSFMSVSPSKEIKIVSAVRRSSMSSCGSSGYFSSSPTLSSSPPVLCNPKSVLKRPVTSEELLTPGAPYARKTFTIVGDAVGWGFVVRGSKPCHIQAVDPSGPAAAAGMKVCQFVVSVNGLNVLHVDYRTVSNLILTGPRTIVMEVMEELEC
UniProt Q7Z6Z7: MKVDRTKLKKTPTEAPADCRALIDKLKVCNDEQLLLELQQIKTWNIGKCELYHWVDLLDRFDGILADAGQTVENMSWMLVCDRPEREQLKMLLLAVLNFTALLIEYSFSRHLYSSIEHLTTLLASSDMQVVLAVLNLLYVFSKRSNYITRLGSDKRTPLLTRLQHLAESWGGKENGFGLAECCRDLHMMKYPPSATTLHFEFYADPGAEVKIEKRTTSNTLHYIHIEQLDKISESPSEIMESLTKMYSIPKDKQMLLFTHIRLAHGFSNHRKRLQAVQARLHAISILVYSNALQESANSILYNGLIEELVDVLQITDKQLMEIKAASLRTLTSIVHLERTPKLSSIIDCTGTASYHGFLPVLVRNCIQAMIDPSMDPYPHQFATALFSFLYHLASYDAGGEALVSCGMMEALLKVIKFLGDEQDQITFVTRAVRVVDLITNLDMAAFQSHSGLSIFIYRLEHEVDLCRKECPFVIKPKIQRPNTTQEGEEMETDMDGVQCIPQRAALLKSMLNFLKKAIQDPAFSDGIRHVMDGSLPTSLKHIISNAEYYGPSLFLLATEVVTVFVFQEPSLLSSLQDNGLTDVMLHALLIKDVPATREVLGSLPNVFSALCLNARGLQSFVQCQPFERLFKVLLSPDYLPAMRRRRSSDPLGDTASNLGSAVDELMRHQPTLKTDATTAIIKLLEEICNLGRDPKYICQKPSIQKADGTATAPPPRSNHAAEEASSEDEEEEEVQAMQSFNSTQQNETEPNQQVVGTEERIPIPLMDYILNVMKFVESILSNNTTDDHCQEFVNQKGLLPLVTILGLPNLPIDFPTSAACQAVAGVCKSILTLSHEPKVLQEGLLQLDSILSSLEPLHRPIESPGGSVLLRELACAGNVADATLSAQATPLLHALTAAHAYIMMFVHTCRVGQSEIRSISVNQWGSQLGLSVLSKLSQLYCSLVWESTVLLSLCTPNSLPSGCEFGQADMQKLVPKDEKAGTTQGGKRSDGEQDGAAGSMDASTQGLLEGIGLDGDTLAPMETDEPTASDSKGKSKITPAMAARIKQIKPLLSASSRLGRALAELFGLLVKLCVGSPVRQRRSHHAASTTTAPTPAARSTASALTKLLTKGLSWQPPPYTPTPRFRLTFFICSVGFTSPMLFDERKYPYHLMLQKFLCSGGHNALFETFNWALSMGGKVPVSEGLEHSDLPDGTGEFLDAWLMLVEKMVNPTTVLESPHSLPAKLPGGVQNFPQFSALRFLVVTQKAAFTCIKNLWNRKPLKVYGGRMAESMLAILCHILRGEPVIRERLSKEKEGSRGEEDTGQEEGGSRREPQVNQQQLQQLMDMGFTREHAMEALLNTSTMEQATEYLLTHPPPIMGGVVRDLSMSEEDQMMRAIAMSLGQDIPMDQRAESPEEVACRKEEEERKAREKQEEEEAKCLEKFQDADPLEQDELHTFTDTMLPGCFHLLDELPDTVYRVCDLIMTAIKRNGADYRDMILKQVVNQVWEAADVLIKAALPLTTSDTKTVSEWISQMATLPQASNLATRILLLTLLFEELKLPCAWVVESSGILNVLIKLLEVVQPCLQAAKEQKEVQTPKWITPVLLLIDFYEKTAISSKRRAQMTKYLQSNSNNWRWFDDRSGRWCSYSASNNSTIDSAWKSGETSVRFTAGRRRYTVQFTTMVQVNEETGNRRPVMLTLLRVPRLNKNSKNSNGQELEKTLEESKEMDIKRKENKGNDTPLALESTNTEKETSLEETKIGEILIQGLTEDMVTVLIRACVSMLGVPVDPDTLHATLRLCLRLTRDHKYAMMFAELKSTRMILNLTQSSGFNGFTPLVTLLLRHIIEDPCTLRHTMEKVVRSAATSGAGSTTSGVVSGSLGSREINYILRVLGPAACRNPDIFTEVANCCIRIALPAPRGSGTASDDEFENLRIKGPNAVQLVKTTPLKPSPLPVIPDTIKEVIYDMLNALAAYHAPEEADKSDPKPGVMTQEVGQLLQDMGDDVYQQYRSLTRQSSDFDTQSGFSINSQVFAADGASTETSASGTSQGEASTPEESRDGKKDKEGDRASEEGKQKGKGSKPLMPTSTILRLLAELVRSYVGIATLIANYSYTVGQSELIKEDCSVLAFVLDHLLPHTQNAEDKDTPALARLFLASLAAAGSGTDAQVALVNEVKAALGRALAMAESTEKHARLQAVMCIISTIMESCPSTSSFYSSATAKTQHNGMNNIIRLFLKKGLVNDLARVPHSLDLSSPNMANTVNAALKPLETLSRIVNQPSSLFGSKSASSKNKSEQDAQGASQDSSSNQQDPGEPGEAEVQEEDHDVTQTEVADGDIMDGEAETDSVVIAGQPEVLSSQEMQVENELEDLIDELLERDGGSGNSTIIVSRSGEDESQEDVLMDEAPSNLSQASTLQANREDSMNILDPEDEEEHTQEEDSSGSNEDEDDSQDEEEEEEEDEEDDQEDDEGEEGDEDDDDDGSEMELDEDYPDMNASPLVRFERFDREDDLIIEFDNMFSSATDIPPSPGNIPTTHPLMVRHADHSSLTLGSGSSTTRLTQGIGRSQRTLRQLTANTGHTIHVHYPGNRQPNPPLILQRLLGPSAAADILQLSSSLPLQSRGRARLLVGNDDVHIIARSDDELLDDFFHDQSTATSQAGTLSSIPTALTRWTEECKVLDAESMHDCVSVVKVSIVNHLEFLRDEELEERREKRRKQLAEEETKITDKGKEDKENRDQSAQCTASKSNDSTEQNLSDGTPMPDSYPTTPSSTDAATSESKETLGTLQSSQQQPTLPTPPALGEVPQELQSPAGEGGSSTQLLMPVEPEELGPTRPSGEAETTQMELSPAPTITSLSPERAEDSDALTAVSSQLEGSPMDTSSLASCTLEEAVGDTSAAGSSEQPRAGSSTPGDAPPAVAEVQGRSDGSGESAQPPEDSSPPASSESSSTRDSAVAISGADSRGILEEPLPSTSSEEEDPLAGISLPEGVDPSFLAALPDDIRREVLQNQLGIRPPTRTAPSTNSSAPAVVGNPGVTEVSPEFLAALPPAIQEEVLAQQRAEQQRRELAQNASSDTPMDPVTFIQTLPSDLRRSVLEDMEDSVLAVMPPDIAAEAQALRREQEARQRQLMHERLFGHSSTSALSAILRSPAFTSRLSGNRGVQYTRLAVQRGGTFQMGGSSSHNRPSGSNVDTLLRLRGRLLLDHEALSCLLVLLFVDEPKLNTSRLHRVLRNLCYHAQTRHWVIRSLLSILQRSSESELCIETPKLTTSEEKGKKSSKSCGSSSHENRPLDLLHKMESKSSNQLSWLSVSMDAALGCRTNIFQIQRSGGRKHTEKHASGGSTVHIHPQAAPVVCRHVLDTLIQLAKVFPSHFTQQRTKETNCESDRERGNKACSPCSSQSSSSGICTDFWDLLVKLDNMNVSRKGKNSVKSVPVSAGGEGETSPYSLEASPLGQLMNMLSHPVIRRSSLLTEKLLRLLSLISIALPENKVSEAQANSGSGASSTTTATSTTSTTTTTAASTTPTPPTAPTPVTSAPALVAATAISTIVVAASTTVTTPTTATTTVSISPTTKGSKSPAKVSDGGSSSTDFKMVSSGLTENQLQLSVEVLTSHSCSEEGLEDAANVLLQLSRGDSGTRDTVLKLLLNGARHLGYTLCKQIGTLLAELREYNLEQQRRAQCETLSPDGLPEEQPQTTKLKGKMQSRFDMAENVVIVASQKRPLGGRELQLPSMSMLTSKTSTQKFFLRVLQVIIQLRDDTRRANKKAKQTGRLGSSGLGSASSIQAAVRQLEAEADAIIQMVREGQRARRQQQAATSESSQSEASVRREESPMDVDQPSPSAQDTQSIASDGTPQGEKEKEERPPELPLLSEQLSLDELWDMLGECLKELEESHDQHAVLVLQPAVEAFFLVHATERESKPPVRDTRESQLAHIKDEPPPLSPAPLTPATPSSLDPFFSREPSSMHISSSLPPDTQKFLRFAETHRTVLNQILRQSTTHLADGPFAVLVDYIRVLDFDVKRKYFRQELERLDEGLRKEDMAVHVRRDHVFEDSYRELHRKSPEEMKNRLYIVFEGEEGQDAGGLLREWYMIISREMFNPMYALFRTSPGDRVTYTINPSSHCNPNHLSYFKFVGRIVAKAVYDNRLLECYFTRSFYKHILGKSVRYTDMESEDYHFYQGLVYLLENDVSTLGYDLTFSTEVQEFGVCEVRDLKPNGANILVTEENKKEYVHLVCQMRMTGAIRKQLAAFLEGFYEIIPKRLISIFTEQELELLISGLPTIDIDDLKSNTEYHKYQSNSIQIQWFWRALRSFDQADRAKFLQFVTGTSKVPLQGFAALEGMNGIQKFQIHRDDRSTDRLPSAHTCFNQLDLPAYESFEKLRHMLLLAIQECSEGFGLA

These are yes or no findings as the source states them, for the method shown. In cells and extracts the contact can be indirect. Here binding means that the protein was enriched with, or labelled near, the bait; the list need not be complete.

The assay deals with FLAG-DEPTOR (UniProt Q8TB45). In words: affinity purification with mass spectrometry; FLAG-DEPTOR immunoprecipitates analysed by mass spectrometry; cells not given.

For the substance “HUWE1 (endogenous, HEK293) (from UniProt Q7Z6Z7 1-4374) (enzyme)”, the binding result is “binds”.
